These are yes or no findings as the source states them, for the method shown. Binding seen in cells or lysates may run through a third protein. Some entries that bind do so weakly or less than the wild type.

By UniProt entry, the sequences of proteins in these tests, tags left out.
UniProt Q06416: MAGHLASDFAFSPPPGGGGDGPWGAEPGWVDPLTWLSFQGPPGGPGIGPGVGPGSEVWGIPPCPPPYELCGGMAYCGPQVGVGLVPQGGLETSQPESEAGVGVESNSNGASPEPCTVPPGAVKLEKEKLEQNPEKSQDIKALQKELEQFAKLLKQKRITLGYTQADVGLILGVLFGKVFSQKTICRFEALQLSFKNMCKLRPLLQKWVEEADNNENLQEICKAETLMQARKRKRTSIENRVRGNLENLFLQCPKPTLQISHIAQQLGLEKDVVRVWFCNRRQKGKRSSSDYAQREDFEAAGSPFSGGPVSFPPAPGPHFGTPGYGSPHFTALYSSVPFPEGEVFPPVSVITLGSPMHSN

Drawing on paper PMC9392749, this text covers binding for 1 substance.

For this assay, the target named is receptor tyrosine kinase (RTK) ERBB2 (human (endogenous in SW480, HT29 and LS1034)) (UniProt P04626). Put plainly: co-IP; lysates of SW480, HT29 and LS1034 cells expressing POU5F1B-HA or GFP; endogenous ERBB2 precipitated with anti-ERBB2 antibody on streptavidin agarose beads overnight at 4 °C; washes with BC100 and BC500 (500 mM KCl); blot with anti-ERBB2 and anti-HA.

Turning to “HA-tagged POU5F1B (from UniProt Q06416 1-359)”, the binding result is given as “binds”.
